From publication PMC8427430 come the findings set out here.

These are yes or no findings as the source states them, for the method shown. In cells and extracts the contact can be indirect. Tags and fused reporters may be left off the sequences shown.

Assay [1] concerns the target Flag-LRR (NLRP3 LRR domain). Kind of assay: co-IP; both partners cotransfected in HEK-293T cells (polyethylenimine, 24 h); extracts immunoprecipitated (anti-Flag beads 3 h at 4°C, or antibody and protein A/G agarose 12 h at 4°C), washed four times in NP-40 lysis buffer, western blotting (Figures 1A, 1F, 1G).
Assay [2] addresses Flag-PYD (NLRP3 pyrin domain). The assay is described as above.

B1: GFP-TRIM65 (full length) (protein, UniProt Q6PJ69 1-517)
chain: MAAQLLEEKLTCAICLGLYQDPVTLPCGHNFCGACIRDWWDRCGKACPECREPFPDGAELRRNVALSGVLEVVRAGPARDPGPDPGPGPDPAARCPRHGRPLELFCRTEGRCVCSVCTVRECRLHERALLDAERLKREAQLRASLEVTQQQATQAEGQLLELRKQSSQIQNSACILASWVSGKFSSLLQALEIQHTTALRSIEVAKTQALAQARDEEQRLRVHLEAVARHGCRIRELLEQVDEQTFLQESQLLQPPGPLGPLTPLQWDEDQQLGDLKQLLSRLCGLLLEEGSHPGAPAKPVDLAPVEAPGPLAPVPSTVCPLRRKLWQNYRNLTFDPVSANRHFYLSRQDQQVKHCRQSRGPGGPGSFELWQVQCAQSFQAGHHYWEVRASDHSVTLGVSYPQLPRCRLGPHTDNIGRGPCSWGLCVQEDSLQAWHNGEAQRLPGVSGRLLGMDLDLASGCLTFYSLEPQTQPLYTFHALFNQPLTPVFWLLEGRTLTLCHQPGAVFPLGPQEEVLS
For the molecule B1, the binding result in assay [1] and in assay [2] was “no binding” each time.
